Among the data in the supplement of paper PMC12595434, “Development of retinoid nuclear receptor pathway antagonists through targeting aldehyde dehydrogenase 1A3” (iScience, 2025) are melting temperature shift values, retold here.

By UniProt entry, the sequences of proteins in these tests, tags left out. Where a name states a change or a piece, a line headed by the entry shows the natural chain unless it says otherwise.
UniProt P51784: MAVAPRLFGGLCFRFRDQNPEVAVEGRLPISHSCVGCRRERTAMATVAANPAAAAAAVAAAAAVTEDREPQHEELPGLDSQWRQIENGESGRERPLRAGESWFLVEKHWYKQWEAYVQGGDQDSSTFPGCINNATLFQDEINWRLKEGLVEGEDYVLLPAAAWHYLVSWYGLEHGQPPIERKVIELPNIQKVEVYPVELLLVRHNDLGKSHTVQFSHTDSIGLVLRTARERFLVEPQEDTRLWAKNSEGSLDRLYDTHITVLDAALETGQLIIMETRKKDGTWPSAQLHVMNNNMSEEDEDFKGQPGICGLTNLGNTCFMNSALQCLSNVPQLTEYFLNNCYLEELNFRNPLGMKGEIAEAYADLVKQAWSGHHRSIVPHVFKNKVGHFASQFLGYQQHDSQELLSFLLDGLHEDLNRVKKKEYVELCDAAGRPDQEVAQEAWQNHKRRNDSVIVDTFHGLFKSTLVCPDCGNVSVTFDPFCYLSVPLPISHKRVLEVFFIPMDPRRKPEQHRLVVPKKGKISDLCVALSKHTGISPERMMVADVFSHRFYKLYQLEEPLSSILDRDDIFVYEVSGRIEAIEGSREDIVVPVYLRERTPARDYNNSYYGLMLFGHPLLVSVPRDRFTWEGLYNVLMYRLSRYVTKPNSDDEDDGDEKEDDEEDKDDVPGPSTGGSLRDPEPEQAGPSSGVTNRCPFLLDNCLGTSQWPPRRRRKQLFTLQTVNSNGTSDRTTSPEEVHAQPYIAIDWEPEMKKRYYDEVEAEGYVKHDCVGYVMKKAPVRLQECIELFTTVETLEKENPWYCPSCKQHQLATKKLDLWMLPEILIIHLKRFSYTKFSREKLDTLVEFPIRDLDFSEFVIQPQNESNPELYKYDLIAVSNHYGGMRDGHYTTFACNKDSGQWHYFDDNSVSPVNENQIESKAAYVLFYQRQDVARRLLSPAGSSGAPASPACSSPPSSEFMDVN
UniProt P49641: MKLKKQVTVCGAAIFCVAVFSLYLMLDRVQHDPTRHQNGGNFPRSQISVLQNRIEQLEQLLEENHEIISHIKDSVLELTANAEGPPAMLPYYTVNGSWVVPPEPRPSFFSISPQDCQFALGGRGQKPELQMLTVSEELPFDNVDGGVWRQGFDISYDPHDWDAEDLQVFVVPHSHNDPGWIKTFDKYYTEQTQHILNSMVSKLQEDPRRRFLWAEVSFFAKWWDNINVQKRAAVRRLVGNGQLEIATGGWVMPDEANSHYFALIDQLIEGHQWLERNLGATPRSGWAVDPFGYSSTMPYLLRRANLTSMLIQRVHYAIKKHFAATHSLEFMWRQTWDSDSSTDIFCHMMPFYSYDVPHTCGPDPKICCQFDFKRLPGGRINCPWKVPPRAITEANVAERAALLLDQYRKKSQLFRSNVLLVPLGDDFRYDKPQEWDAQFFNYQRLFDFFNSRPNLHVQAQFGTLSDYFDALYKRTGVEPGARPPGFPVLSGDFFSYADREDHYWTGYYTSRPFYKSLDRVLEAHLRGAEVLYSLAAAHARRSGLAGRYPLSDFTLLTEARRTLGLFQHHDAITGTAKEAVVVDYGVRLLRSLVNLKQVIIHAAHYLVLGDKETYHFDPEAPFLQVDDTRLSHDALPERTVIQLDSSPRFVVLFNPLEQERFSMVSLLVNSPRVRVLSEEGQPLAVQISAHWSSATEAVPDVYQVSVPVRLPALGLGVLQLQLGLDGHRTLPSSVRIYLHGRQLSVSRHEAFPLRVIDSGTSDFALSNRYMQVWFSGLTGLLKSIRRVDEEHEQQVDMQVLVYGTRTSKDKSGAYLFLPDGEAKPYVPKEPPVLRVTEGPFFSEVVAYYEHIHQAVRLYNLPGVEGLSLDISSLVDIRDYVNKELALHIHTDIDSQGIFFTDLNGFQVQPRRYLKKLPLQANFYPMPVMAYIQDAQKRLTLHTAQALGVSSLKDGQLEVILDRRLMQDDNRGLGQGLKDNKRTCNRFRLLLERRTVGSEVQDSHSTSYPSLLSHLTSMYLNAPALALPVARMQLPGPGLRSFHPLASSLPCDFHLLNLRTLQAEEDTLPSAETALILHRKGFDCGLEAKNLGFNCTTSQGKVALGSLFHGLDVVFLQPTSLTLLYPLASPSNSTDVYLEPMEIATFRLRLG
UniProt P48200: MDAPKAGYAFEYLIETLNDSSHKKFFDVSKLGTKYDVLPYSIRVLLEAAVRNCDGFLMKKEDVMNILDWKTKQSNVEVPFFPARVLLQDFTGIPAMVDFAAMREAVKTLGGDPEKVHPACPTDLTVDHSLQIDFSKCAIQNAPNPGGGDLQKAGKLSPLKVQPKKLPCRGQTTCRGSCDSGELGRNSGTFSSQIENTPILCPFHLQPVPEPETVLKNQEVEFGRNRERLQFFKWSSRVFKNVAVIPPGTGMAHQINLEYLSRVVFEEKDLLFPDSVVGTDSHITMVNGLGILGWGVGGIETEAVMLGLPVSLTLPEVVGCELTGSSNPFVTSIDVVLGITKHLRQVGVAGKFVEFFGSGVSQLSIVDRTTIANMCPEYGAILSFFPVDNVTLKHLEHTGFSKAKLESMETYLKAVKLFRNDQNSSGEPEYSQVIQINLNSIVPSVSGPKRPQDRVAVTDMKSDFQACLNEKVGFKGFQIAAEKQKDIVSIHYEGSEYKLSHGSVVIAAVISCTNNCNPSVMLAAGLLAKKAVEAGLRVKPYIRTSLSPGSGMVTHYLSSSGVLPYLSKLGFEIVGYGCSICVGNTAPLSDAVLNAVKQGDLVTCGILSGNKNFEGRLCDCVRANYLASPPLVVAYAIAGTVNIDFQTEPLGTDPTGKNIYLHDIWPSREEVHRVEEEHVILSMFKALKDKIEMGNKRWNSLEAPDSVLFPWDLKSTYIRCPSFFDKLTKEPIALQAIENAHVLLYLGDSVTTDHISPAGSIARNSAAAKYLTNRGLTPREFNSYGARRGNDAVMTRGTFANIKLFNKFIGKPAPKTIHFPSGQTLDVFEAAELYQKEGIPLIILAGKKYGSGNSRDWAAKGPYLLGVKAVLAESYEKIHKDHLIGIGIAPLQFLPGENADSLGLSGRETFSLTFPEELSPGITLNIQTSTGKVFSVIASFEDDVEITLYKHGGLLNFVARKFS
UniProt P42566: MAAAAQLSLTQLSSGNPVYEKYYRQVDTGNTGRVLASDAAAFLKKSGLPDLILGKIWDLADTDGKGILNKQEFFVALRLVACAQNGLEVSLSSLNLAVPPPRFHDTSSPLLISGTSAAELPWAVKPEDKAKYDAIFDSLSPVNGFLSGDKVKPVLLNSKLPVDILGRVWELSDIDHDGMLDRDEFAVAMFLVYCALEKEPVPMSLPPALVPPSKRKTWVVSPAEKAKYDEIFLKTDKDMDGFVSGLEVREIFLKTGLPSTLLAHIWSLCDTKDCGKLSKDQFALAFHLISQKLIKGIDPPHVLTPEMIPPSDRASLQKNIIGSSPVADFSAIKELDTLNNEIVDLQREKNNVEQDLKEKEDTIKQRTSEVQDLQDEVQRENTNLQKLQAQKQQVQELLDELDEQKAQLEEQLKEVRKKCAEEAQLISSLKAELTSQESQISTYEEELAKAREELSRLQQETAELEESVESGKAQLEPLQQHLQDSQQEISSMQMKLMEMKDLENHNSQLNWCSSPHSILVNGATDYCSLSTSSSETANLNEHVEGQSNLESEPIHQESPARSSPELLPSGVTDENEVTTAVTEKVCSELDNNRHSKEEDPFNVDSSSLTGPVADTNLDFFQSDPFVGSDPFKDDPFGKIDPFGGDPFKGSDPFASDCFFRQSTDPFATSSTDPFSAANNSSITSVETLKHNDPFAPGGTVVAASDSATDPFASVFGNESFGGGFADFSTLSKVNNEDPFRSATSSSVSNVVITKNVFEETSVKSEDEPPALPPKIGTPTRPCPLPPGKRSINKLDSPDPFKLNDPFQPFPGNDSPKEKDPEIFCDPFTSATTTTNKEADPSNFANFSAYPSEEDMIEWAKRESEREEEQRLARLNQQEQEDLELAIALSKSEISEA
UniProt P40938, whole entry: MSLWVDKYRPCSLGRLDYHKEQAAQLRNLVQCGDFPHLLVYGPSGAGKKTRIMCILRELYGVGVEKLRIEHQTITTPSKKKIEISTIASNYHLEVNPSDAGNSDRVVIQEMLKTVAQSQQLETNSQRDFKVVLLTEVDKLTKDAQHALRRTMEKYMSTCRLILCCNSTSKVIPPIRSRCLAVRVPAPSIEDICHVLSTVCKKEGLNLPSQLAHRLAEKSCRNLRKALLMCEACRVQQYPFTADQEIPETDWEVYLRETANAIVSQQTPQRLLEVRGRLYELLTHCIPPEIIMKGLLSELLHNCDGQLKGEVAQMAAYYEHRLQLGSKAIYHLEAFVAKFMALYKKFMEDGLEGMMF
UniProt P48506: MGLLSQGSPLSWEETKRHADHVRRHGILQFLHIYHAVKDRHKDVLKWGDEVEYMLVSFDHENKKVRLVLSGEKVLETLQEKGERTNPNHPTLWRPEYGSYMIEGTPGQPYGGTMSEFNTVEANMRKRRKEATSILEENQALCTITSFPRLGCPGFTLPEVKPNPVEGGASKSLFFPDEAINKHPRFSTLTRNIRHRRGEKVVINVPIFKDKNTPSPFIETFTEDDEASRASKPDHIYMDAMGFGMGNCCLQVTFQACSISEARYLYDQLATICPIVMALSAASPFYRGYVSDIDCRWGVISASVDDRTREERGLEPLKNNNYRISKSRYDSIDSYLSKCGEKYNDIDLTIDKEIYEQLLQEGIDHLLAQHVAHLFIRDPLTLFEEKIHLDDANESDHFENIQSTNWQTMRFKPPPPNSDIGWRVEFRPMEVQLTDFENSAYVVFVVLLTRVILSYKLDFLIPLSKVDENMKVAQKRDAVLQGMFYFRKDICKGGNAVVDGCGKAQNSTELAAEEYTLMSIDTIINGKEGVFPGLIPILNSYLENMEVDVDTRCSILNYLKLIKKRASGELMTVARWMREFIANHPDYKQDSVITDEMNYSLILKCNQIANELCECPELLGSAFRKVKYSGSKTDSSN
UniProt P40937, whole entry: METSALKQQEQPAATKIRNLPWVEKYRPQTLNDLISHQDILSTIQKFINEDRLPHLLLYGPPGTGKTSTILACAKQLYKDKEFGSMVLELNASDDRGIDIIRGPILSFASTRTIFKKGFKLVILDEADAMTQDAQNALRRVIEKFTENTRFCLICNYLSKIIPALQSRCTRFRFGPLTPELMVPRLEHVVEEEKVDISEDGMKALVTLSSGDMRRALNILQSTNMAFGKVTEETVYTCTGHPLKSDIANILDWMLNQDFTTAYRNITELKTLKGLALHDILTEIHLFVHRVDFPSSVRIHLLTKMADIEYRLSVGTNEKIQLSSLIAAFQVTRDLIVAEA
UniProt P49459, whole entry: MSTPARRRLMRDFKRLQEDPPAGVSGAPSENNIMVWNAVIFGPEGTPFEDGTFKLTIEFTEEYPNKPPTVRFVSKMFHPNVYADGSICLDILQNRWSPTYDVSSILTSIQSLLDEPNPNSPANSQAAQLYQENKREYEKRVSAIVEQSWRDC
UniProt P50747: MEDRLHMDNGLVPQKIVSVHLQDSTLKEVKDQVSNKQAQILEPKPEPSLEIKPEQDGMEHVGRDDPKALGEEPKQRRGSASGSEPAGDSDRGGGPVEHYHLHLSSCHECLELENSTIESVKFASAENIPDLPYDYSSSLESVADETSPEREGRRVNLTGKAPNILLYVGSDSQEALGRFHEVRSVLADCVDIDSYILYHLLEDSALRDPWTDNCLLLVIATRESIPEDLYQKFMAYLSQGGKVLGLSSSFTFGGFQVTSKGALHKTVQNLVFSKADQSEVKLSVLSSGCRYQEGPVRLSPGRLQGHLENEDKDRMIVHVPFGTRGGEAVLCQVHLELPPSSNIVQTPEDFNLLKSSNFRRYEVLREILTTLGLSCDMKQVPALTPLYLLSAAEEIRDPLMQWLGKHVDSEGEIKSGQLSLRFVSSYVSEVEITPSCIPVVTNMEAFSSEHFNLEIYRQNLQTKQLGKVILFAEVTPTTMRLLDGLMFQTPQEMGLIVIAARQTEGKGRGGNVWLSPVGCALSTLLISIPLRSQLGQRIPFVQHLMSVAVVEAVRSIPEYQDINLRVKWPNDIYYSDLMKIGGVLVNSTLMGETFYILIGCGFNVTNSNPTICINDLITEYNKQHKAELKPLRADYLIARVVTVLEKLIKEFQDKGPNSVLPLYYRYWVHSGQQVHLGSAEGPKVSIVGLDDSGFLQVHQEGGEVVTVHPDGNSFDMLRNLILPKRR

Some of the results follow. This is a noisy data set.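 Tm was set to 64 °C where no melting was found, and many curves are irregular.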

Compound in the experiment: CCc1cnccc1C(=O)Nc1cc2c(cc1F)NC(=O)CC2
Briefly: melting temperature shift (DMSO Tm minus MBE1-treated Tm) in cellular thermal proteome profiling; higher = less thermal stabilization by MBE1 (negative = stabilized by MBE1). The conditions noted are these: A375; MBE1 concentration: 1 uM.
Turning to USP11 (UniProt P51784), the melting temperature shift is -0.205 °C. For the target UniProt P49641, the melting temperature shift is 0.711 °C. As to TUFM (UniProt P49411), the melting temperature shift is 0.293 °C. As for IREB2 (UniProt P48200), the melting temperature shift amounted to 0.0423 °C.

Turning to EPS15 (UniProt P42566), the melting temperature shift came to 0.605 °C. Regarding RFC3 (UniProt P40938), the melting temperature shift was -0.689 °C. In the case of GCLC (UniProt P48506), the melting temperature shift is 0.0672 °C. As to RFC5 (UniProt P40937), the melting temperature shift is 0.183 °C. Regarding UBE2A (UniProt P49459), the melting temperature shift was determined as 0.704 °C. Next, HLCS (UniProt P50747): 1.03 °C.
